Data reported in the supplement of paper PMC7238544.
Structures can show the parent of a compound that is named as a salt. ± gives the standard deviation of the averaged measurements. The list shows a part of the results. The data scatter; read single values as rough.

Assays:
[1] = system: hAMSC donor 1; test: Hoechst total cell count ratio vs vehicle control; higher = more cells (less toxicity)
[2] = system: hAMSC donor 2; test: as above
[3] = system: hAMSC donor 1; test: transgenic luciferase activity (RLU/mg protein) fold change vs vehicle control (ratio); higher = more transgene expression; settings: priming compound concentration 0.2 µM
[4] = system: hAMSC donor 2; test: as above
[5] = system: hAMSC donor 1; test: transfection efficiency (EGFP+ cells / Hoechst count) fold change vs vehicle control (ratio); hAMSC are human adipose-derived mesenchymal stem cells given an EGFP-luciferase plasmid by lipofection; higher = enhanced transfection
[6] = system: hAMSC donor 2; test: as above
[7] = priming compound concentration 0.2 µM
[8] = priming compound concentration 1.7 µM
[9] = priming compound concentration 13 µM

Row | SMILES | Hoechst total cell count ratio [1, 7] | Hoechst total cell count ratio [1, 8] | Hoechst total cell count ratio [1, 9] | Hoechst total cell count ratio [2, 7] | Hoechst total cell count ratio [2, 8] | Hoechst total cell count ratio [2, 9] | transgenic luciferase activity [3] | transgenic luciferase activity [4, 8] | transfection efficiency [5, 7] | transfection efficiency [5, 8] | transfection efficiency [5, 9] | transfection efficiency [6, 7] | transfection efficiency [6, 8] | transfection efficiency [6, 9] | transgenic luciferase activity [4, 7]
1 | CC[N+](C)(C)c1cccc(O)c1 [Edrophonium chloride] | 1.1 ± 0.068 | 1.11 ± 0.14 | 1.14 ± 0.13 | 1.25 ± 0.14 | 1.35 ± 0.047 | 0.901 ± 0.16 | 1.25 ± 0.71 | 0.678 ± 0.018 | 1.06 ± 0.26 | 1.13 ± 0.26 | 1.03 ± 0.15 | 1.16 ± 0.13 | 1.16 ± 0.077 | 0.927 ± 0.13 | –
2 | CN1CCC[C@H]1c1cccnc1 [Nicotine] | 1.19 ± 0.084 | 1.3 ± 0.15 | 1.36 ± 0.098 | 1.03 ± 0.13 | 1.17 ± 0.21 | 1.18 ± 0.2 | 1.74 ± 0.32 | – | 1.01 ± 0.36 | 0.708 ± 0.33 | 1.49 ± 0.066 | 1.23 ± 0.35 | 0.978 ± 0.035 | 1 ± 0.14 | 0.663 ± 0.17
3 | CN1[C@@H](CC(=O)c2ccccc2)CCC[C@H]1C[C@H](O)c1ccccc1 [Lobeline hydrochloride] | 1.18 ± 0.098 | 1.24 ± 0.25 | 1.41 ± 0.13 | 0.913 ± 0.32 | 1.59 ± 0.2 | 1.1 ± 0.43 | 0.782 ± 0.28 | 0.738 ± 0.27 | 1.07 ± 0.23 | 0.869 ± 0.14 | 0.659 ± 0.05 | 1.33 ± 0.41 | 1.28 ± 0.18 | 0.938 ± 0.31 | –
4 | CCN(CC)CCOc1ccc(C(=C(Cl)c2ccccc2)c2ccccc2)cc1 [Clomifene citrate] | 1.02 ± 0.074 | 1.2 ± 0.063 | 1.02 ± 0.015 | 0.933 ± 0.21 | 1.36 ± 0.097 | 1.65 ± 0.46 | 0.836 ± 0.24 | 0.512 ± 0.04 | 1.22 ± 0.2 | 1.3 ± 0.33 | 1.2 ± 0.36 | 1.27 ± 0.17 | 0.965 ± 0.11 | 0.616 ± 0.12 | –
5 | CC1(C)S[C@@H]2[C@H](NC(=O)[C@H](N)c3ccc(O)cc3)C(=O)N2[C@H]1C(=O)O [Amoxicillin] | 1.19 ± 0.1 | 1.46 ± 0.16 | 1.47 ± 0.12 | 1.09 ± 0.19 | 1.11 ± 0.087 | 1.1 ± 0.099 | 2.15 ± 0.79 | – | 0.664 ± 0.067 | 0.662 ± 0.23 | 0.853 ± 0.3 | 1.21 ± 0.18 | 0.876 ± 0.059 | 0.93 ± 0.074 | 1.25 ± 0.03
6 | CC(N/C(=N\C#N)Nc1ccncc1)C(C)(C)C (configuration not stated) [Pinacidil monohydrate] | 1.16 ± 0.088 | 1.09 ± 0.099 | 1.37 ± 0.13 | 1.27 ± 0.049 | 1.45 ± 0.047 | 1.09 ± 0.23 | 0.813 ± 0.79 | 0.865 ± 0.27 | 0.937 ± 0.1 | 1.33 ± 0.71 | 0.652 ± 0.22 | 1.07 ± 0.058 | 0.879 ± 0.062 | 0.834 ± 0.078 | –
7 | C[C@H]1O[C@@H](O[C@H]2[C@@H](O)C[C@H](O[C@H]3[C@@H](O)C[C@H](O[C@H]4CC[C@@]5(C)[C@H](CC[C@@H]6[C@@H]5C[C@@H](O)[C@]5(C)[C@@H](C7=CC(=O)OC7)CC[C@]65O)C4)O[C@@H]3C)O[C@@H]2C)C[C@H](O)[C@@H]1O [Digoxin] | 0.856 ± 0.089 | 0.429 ± 0.037 | 0.254 ± 0.049 | 1.02 ± 0.25 | 0.855 ± 0.076 | 0.21 ± 0.034 | 3.21 ± 0.89 | 1.05 ± 0.71 | 1.24 ± 0.41 | 1.23 ± 0.28 | 0.553 ± 0.36 | 1.15 ± 0.075 | 0.648 ± 0.15 | 0.0921 ± 0.035 | –
8 | CC1(C)O[C@@H]2[C@@H](CO[C@@]3(COS(N)(=O)=O)OC(C)(C)O[C@@H]23)O1 [Topiramate] | 1.22 ± 0.1 | 1.2 ± 0.085 | 1.36 ± 0.094 | 0.976 ± 0.022 | 1.22 ± 0.16 | 1.09 ± 0.14 | 1.34 ± 0.55 | – | 1.38 ± 0.41 | 1 ± 0.43 | 1.09 ± 0.36 | 1.66 ± 0.52 | 1.05 ± 0.16 | 1.14 ± 0.065 | 0.978 ± 0.23
